Measured values reported in paper PMC3291658.
These are yes or no findings as the source states them, for the method shown. Some binding calls cover weakened binding; strength is not graded here.

T1: NF-κB p50 (mouse (endogenous in J774)), P25799
T1 chain: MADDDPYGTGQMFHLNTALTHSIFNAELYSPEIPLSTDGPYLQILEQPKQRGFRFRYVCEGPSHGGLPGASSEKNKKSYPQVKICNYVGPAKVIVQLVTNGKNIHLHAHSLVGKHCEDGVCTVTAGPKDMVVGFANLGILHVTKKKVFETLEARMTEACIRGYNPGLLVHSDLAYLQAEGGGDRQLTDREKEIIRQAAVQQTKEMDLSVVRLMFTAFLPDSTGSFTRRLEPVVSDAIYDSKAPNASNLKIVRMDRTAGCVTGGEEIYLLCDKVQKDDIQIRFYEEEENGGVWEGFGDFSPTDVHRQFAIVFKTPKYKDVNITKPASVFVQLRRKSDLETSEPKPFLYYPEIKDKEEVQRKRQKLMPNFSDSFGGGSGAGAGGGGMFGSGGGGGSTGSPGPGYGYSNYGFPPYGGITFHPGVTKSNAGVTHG


Legend:
[1] = molecular target: NF-κB p50 (mouse (endogenous in J774)) (UniProt P25799); assay: native gel or EMSA; supershift: 5 µg nuclear extracts from J774 cells mock-treated or infected for 24 h by WT C. neoformans (KN99α), preincubated with preimmune serum or sera against each NF-κB family member alone or in combination; complexes bound to a κB site oligonucleotide
[2] = molecular target: T1, NF-κB p50 (mouse (endogenous in J774)), …; assay: as above; settings: remark: other sources report otherwise

Row | binding [1] | binding [2] | Molecule
1 | binds |  | NF-κB p50 (from UniProt P25799 1-431)
2 |  | binds | NF-κB p65/RelA, Q04207 1-549 (protein) MDDLFPLIFPSEPAQASGPYVEIIEQPKQRGMRFRYKCEGRSAGSIPGERSTDTTKTHPTIKINGYTGPGTVRISLVTKDPPHRPHPHELVGKDCRDGYYEADLCPDRSIHSFQNLGIQCVKKRDLEQAISQRIQTNNNPFHVPIEEQRGDYDLNAVRLCFQVTVRDPAGRPLLLTPVLSHPIFDNRAPNTAELKICRVNRNSGSCLGGDEIFLLCDKVQKEDIEVYFTGPGWEARGSFSQADVHRQVAIVFRTPPYADPSLQAPVRVSMQLRRPSDRELSEPMEFQYLPDTDDRHRIEEKRKRTYETFKSIMKKSPFNGPTEPRPPTRRIAVPTRNSTSVPKPAPQPYTFPASLSTINFDEFSPMLLPSGQISNQALALAPSSAPVLAQTMVPSSAMVPLAQPPAPAPVLTPGPPQSLSAPVPKSTQAGEGTLSEALLHLQFDADEDLGALLGNSTDPGVFTDLASVDNSEFQQLLNQGVSMSHSTAEPMLMEYPEAITRLVTGSQRPPDPAPTPLGTSGLPNGLSGDEDFSSIADMDFSALLSQISS
